No constants are given. Whether binding was seen depends on the method and setting. In cells and extracts the contact can be indirect. Here binding means that the protein was enriched with, or labelled near, the bait; the list need not be complete. Where a sequence is shown, tags or fusion partners need not be part of it.
T1: Chl1-Flag (Schizosaccharomyces pombe) (UniProt O14147)
T1 sequence: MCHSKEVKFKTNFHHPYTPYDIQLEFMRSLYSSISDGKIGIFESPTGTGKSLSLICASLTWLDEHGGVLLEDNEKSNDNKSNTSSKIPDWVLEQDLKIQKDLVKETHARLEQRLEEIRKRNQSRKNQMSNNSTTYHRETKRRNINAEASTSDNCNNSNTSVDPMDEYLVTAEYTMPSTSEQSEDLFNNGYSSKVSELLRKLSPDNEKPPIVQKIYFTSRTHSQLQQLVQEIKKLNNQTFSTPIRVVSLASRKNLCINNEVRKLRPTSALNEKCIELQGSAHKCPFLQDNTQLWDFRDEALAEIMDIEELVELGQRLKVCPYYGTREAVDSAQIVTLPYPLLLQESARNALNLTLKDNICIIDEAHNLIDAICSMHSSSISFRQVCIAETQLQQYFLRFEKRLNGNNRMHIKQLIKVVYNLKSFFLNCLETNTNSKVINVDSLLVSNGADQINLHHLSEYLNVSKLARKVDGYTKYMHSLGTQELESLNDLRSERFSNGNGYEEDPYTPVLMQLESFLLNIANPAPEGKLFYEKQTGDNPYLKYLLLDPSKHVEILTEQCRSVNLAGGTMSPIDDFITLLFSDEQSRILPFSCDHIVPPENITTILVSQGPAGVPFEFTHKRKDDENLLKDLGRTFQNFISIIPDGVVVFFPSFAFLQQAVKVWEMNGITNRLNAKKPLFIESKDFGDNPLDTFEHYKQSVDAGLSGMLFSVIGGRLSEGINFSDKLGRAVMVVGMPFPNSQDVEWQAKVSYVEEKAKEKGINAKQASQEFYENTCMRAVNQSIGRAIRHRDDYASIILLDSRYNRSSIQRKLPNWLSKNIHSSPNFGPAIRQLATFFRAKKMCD

B1: Ssb1 (protein, UniProt Q92372 1-609)
chain: MAERLSVGALRIINTSDASSFPPNPILQVLTVKELNSNPTSGAPKRYRVVLSDSINYAQSMLSTQLNHLVAENKLQKGAFVQLTQFTVNVMKERKILIVLGLNVLTELGVMDKIGNPAGLETVDALRQQQNEQNNASAPRTGISTSTNSFYGNNAAATAPAPPPMMKKPAAPNSLSTIIYPIEGLSPYQNKWTIRARVTNKSEVKHWHNQRGEGKLFSVNLLDESGEIRATGFNDQVDAFYDILQEGSVYYISRCRVNIAKKQYTNVQNEYELMFERDTEIRKAEDQTAVPVAKFSFVSLQEVGDVAKDAVIDVIGVLQNVGPVQQITSRATSRGFDKRDITIVDQTGYEMRVTLWGKTAIEFSVSEESILAFKGVKVNDFQGRSLSMLTSSTMSVDPDIQESHLLKGWYDGQGRGQEFAKHSVISSTLSTTGRSAERKNIAEVQAEHLGMSETPDYFSLKGTIVYIRKKNVSYPACPAADCNKKVFDQGGSWRCEKCNKEYDAPQYRYIITIAVGDHTGQLWLNVFDDVGKLIMHKTADELNDLQENDENAFMNCMAEACYMPYIFQCRAKQDNFKGEMRVRYTVMSINQMDWKEESKRLINFIESAQ
B2: Ssb2 (protein, UniProt Q92373 1-279)
chain: MAYDAFGKPGYGPDFNSAFSPGMGGGAGFNEYDQSSQPSVDRQQGAGNKLRPVTIKQILNASQVHADAEFKIDGVEVGQVTFVGVLRNIHAQTTNTTYQIEDGTGMIEVRHWEHIDALSELATDTYVRVYGNIKIFSGKIYIASQYIRTIKDHNEVHFHFLEAIAVHLHFTQKANAVNGANAPGYGTSNALGYNNISSNGAANSLEQKLAEYSLTPAQMTVMQAIHSAPETNEGVHVRQLAQSVGPGIDLTAVTDFLQQEGIIYTTIDENHFKSVLQDQ

Molecular target: T1, Chl1-Flag (Schizosaccharomyces pombe)
Assay: affinity purification with mass spectrometry; Chl1-Flag captured from S. pombe lysate on anti-Flag M2 affinity agarose beads; HC buffer (150 mM HEPES-KOH pH 7.6, 1 mM EDTA, 250 mM KCl, 10% glycerol, 1 mM DTT); eluted with 3xFlag peptide; mass spectrometry

Binder	binding
B1	binds
B2	binds
